# About 3,700 (7%) of roughly 53,000 sequences were called active.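 The calls were made as follows: active = gene knockdowns whose robust z-score for IL-1 alpha signal is at least 2 or at most -2, so actives lie on both sides; inactive = the rest.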 The list shows a part of the results.
# Assay: Components of the Cytosolic LPS Sensing Pathway: Gene Identification via Genome-wide siRNA Screen;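 also: robust z of the log signal after scaling to non-targeting control siRNA wells of the plate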
# Conditions: RAW264.7 macrophages, IL-1a HTRF, actives lie on both sides, screened at 100 nM (by protocol), cells primed 5 h with Pam3CSK4 first
# Summary of the method: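 Mouse macrophage line RAW264.7 is transfected with siRNA (100 nM final), grown 48h, primed with TLR ligand Pam3CSK4 5 h and given intracellular LipidA 24 h. IL-1a in supernatant is read by HTRF and viability by luminescence.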
row,Sequence,z-score
1,CCACACGGUCUUAGAUGAGTT against Cdkl3,inactive: 1.08
2,CCUAUGCAUCCCUGACUACTT against Tmem126b,active: 5.07
3,GGAUCCGUGCAGACAUUGUTT against Gstm1,inactive: 0.943
4,GCCCUAAGGAAGUACAGAGTT against Rgs19,inactive: 1.07
5,GGGACAAAGGUUGAACAAGTT against Zfp36l1,inactive: 0.207
6,CCUUAUGAAUCCCGAGUACTT against Bmp6,inactive: -0.0506
7,GGGCUUCACUCCACUGCAUTT against Ankrd52,inactive: 0.782
8,GGAAGAGACUUAUAAUGGUTT against Olfr1214,inactive: 1.28
9,CCUGUUUCUUUCAUGCAGUTT against 2310022A10Rik,inactive: 0.337
10,CCGAGCUGAGAUAUCCCAATT against Uba1y,inactive: -0.908
11,GGGCUGACUUCCUAUGACCTT against Adra2c,active: 2.14
12,GGUCUAGGUAGGAGAACUUTT against Elf4,inactive: 0.324
13,UUACUGGUUGCUGUUGUGGTT against Alyref,inactive: 1.35
14,GACAGGCGGCCUUCCGAGATT against Hyi,inactive: -0.479
15,GGGCUGACCAUAACUUGAUTT against Unc5d,inactive: -0.241
16,GGAUCAAGAAUCCAAGGUUTT against Nek6,inactive: -1.12
17,GGUACGAGCUGUUCGCCAUTT against Tbc1d31,inactive: 1.51
18,GGAAUGCUAUCAGAGAAGATT against Zmym5,inactive: -0.0365
19,GGCUCAGUUUAAGAAAACATT against Pkp2,inactive: 0.817
20,GGCUUGUCAUGAAUUUUUATT against Ankrd52,inactive: -0.896
21,GCUAGGUGGGCAACUGUAUTT against Lpar3,active: 2.12
22,CCAAAACAACCACAAGUAGTT against Zfp385c,active: -2.96
23,CCUGUCGCCACGUGGAAUATT against Cnih4,inactive: 0.00879

row,Sequence,z-score
1,CCUAGAAAUCAGUGAAUUUTT against Ralgapa1,inactive: 0.709
2,GGGUCUAGAGUGCAUCUUCTT against Krt78,inactive: 0.418
3,CCCUAAAACCAAAUGUACATT against Tet2,inactive: 1.7
4,GCAUAGUAAUCUCCGAAUATT against Zfp933,inactive: 1.44
5,GCGGUUUCUUACCAAUAACTT against Cyp1a2,inactive: 0.984
6,GGGACCAGAACAAAGUGGUTT against Olfr487,inactive: 0.474
7,GGAUGGCAGACAUUAUGUCTT against Nek1,inactive: 0.367
8,GGAGUAUCGUUUAUUCAUUTT against Slc2a2,inactive: 0.161
9,GCUGCUGGCAACAAAUAUGTT against Tubb2a,inactive: 0.826
10,GGUUUGGCAUCUAAAGAGCTT against Olfr1412,active: -2.42
11,CGAUUUCAACCGUGAAUCUTT against Tcf12,inactive: 0.554
12,GGCAAAAGCAGACAUUGAATT against Trub1,inactive: 1.23
13,GCUUUGACUACAUCUGAGGTT against Telo2,inactive: -1.41
14,CCAGAAGUGAUGGUUCAGUTT against Selenoh,inactive: 0.577
15,GGAAGAAAUCAAGGUAUCATT against 9330155M09Rik,inactive: -1.13
16,GGCAAUCCCACAUCCUCGATT against Ergic2,inactive: -1.45
17,GGCCAUUACGAUGAAGAUUTT against Zpld1,inactive: -1.92
18,GGACAAAGAAAACAGCUGUTT against Klrb1f,inactive: -0.718
19,CCCAAGUGAGUAAUAUACUTT against Abt1,inactive: -0.21
20,GCUGCCUAUAUUCAUUUAATT against Zhx3,inactive: 0.745
21,GGCCACACAGAUUAUCUUGTT against Vmn1r24,inactive: -0.356
22,CGCAGUCAAAUUUGAAAGUTT against Car5b,inactive: 0.775
23,GGUAAAGAAAUGAGGACCGTT against Tas2r130,inactive: -0.0477

row,Sequence,z-score
1,GGAUCCUGCCUUAAGUCAATT against Gadd45a,inactive: 0.92
2,GGUGGUCUAUUUCACCACGTT against Slc6a20b,inactive: -0.588
3,GCUCGUUUUCUAUUGAAGUTT against Babam2,inactive: 0.672
4,GCAUAGUCUUGUUAACCAGTT against Poldip3,inactive: -0.689
5,GCCUUUUCAAUCCUAUGUUTT against Olfr441,inactive: -0.889
6,GGAACAGUCCUACUGAUAUTT against Cdkn1a,inactive: -0.271
7,GGAUGUACUAGCUGAGAUUTT against Cpne9,inactive: 0.409
8,GGUUUUAACAUGAGCAGCCTT against Ofcc1,inactive: -0.369
9,GGAGAUCAGUUAACCCUACTT against Crisp2,inactive: -0.663
10,GGAAAAGAGAGAAAAUGUUTT against Ubn2,inactive: -0.575
11,GGGAAUCAUUAAAUAGGAUTT against Arhgap26,inactive: -0.163
12,GGGAAGUUUCGCUACCUUGTT against Kcnk18,inactive: 0.44
13,GGGUCAAGACAAAUCUUCCTT against Snx3,inactive: 0.778
14,GGCAAAAAUCAUUGUCAUUTT against Gk5,inactive: -1.6
15,CGCGCUAAAGGAGAAGUUUTT against Wnt4,inactive: 0.995
16,GGUUCAUGAUUUUUCAAGCTT against Rtl6,inactive: -0.319
17,GGAAGUGGAAAUGAGGACATT against Tbc1d9b,inactive: 0.122
18,GGACAGAAUGGACCUCUUCTT against Ube2o,inactive: -0.0943
19,GGCACUGUUGUGGCUGAAATT against Coro1a,inactive: 1.47
20,GGAGACAAGAACUACAUUATT against Actn3,inactive: 0.747
21,GCUUACUGUCCCUUAAGUUTT against Msantd1,active: 2.45
22,GGCCAUCAGAUAGUUUAAUTT against AW551984,inactive: 0.458

# As entered above:
# Entry for GCUUACUGUCCCUUAAGUUTT against Msantd1 under z-score: active: 2.45
# Entry for GGAUCAAGAAUCCAAGGUUTT against Nek6 under z-score: inactive: -1.12

# Source: PubChem BioAssay AID1508600 (Functional Genomics Laboratory (NCATS/FGL), 2020)
